Literature values, collected in US20260183300A1, “PHARMACEUTICAL COMPOSITION AND USE THEREOF” (priority 2022, published 2026).
At least one structure is not confirmed: it was looked up by name or label, or the drawing left a doubt.

Test system: recurrent glioblastoma and anaplastic glioma
Details: patients with recurrent glioblastoma and anaplastic glioma; cited from earlier work

Cc1[nH]c2ccccc2c1CCNCc1ccc(/C=C/C(=O)NO)cc1 [panobinostat, Panobinostat]
6-month progression-free survival period: did not significantly improve
